# In all, about 400,000 compounds went through this assay and about 13,000 (3.2%) were called active. Inconclusive means that the source gave no clear call. Such entries were picked first, then a sample of the others. The call rests on the fitted dose curve; in most records, active means well fitted cell-killing curve with a large enough effect; inconclusive means small, poorly fitted or top-dose-only effect, or effect the other way; inactive means flat fitted curve, though single readings scatter. Potencies of inconclusive entries are doubtful fits and often do not repeat.
# Assay: qHTS assay for MDR1-selective chemotherapeutics: Primary screen using the drug-selected MDR subline cells KB-V1; further: nearly all actives have a fitted effect of over 60% in size
# Conditions: KB-V1 MDR cells viability, CellTiter-Glo, 72 h; activity change, negative = cytotoxicity: at 46.1 µM (top of the series)
# Method in brief: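 KB-V1, DMEM (no phenol red) + 10% FBS; cpd pin-transferred, titration series; 72 h, 37 degrees C; CellTiter-Glo, luminescence. Data normalized, curve-fit.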
# On the % scale 0 is the no-effect control and ±100 the full control effect; potency means the concentration at half of the fitted maximal effect.
Structure (SMILES),"activity change, negative = cytotoxicity",Potency
COc1ccccc1CNC(=O)c1ccc2c(c1)CCN2S(=O)(=O)c1ccccc1,inactive: 4.92%,
O=C(O)c1ccc(/C=C2\SC(=S)N(NC(=O)c3ccccc3)C2=O)cc1,,"inconclusive: 29.1 µM [rising, single point]"
COc1ccc(N2CCN(C(=O)c3ccc(-c4nc5ccccc5s4)o3)CC2)cc1,inactive: -0.378%,
CC(C)N1C(=O)S/C(=C/c2ccc(Sc3nc4ccccc4[nH]3)o2)C1=O,,active: 23.1 µM
CCOC(=O)c1cccc(NC(=O)c2ccc3nc(Cc4ccccc4)oc3c2)c1,,"inconclusive: 8.2 µM [cytotoxic, partial curve]"
COc1cc(/C=C/C(=O)O)cc(S(=O)(=O)NCc2ccco2)c1OC,,"inconclusive: 14.6 µM [rising, single point]"
CN(C)CCCN(C(=O)c1ccc(N2C(=O)CCC2=O)cc1)c1nc2c(F)cccc2s1,inactive: -16.3%,
COc1cccc(CC(NC(C)=O)C(=O)NC2CCN(C(=O)c3ccc(Cl)cc3)CC2)c1 (configuration not stated),,"inconclusive: 18.4 µM [rising, single point]"
Cc1cccc(NS(=O)(=O)c2cccs2)c1,inactive: -5.02%,
O=C(COC(=O)Cc1ccsc1)Nc1ccc(F)cc1Cl,,"inconclusive: 29.1 µM [rising, single point]"
CCOCCCNC(=O)C(NC(=O)c1ccc(=O)[nH]c1)c1ccc(C)cc1 (configuration not stated),,"inconclusive: 23.1 µM [rising, single point]"
Cc1noc(C)c1COc1ccc(C(=O)OCC(=O)N2CC3(C)CC2CC(C)(C)C3)cc1 (configuration not stated),,"inconclusive: 14.6 µM [cytotoxic, partial curve, poor fit]"
CCN(CC)S(=O)(=O)c1cc(NC(=O)COC(=O)c2ccc(NC(=O)CC#N)cc2)ccc1C,,"inconclusive: 0.651 µM [rising, full curve, poor fit]"
COc1cccc(CNC(=O)Cc2ccc(-n3c(=O)[nH]c4ccccc4c3=O)cc2)c1,,"inconclusive: 29.1 µM [cytotoxic, single point]"
COc1ccc(/C=C/C=C2\NC(=S)NC2=O)cc1,,"inconclusive: 11.6 µM [cytotoxic, partial curve, poor fit]"
COc1ccc(-n2c(=O)c3c(c4cc(OC)ccc4n3C)n(Cc3cc(C)ccc3C)c2=O)cc1,,"inconclusive: 29.1 µM [cytotoxic, single point]"
Cc1ccc(NC(=S)NC(=O)c2c(-c3ccccc3Cl)noc2C)cc1,,active: 20.6 µM
CC1CC1C(=O)OCC(=O)NC(=O)NCc1ccco1 (configuration not stated),inactive: 21.6%,
CCCN1C2=C(C(=O)CC(C)(C)C2)C(c2ccc(F)cc2)C2=C1c1ccccc1C2=O (configuration not stated),,"inconclusive: 9.2 µM [cytotoxic, partial curve]"
COc1ccc(C)cc1-n1nnnc1SCc1cc(=O)n2cc(C)ccc2n1,,active: 7.31 µM
CCc1ccccc1NC(=O)CNC(=O)c1cccc(S(=O)(=O)N2CCN(Cc3ccccc3)CC2)c1,,active: 16.4 µM

Structure (SMILES),"activity change, negative = cytotoxicity",Potency
N#Cc1cnc(SCCc2ccccc2)nc1N,,"inconclusive: 29.1 µM [cytotoxic, single point]"
Cc1cccc(N(C(=O)Cn2nnc3ccccc32)C(C(=O)NC(C)(C)C)c2ccsc2)c1 (configuration not stated),,"inconclusive: 1.64 µM [cytotoxic, full curve, poor fit]"
O=C(NNC(=O)c1ccccc1O)c1ccccc1O,,active: 0.517 µM
CC1(Cc2ccccc2Cl)C(=O)Nc2c(Cl)cccc21 (configuration not stated),inactive: 0.0549%,
CC(C)c1nnc(N2C(=O)c3oc4ccccc4c(=O)c3C2c2ccco2)s1 (configuration not stated),,"inconclusive: 29.1 µM [cytotoxic, single point]"
CCOC(=O)[C@H]1[C@H]2COc3cc(OC)ccc3[C@@H]2N2C(=O)CN(Cc3ccc(C)cc3)C(=O)[C@@]12C,inactive: 0%,
CCC(C)NC(=S)N(Cc1cc2cc(C)ccc2n2nnnc12)CC(C)(C)NC(C)C (configuration not stated),inactive: 11.8%,
COc1ccc(C=NN=C2c3ccccc3-c3ccccc32)cc1OC,,"inconclusive: 16.4 µM [cytotoxic, partial curve, poor fit]"
Cc1ccc(S(=O)(=O)N(C)c2ccccc2C(=O)NC2CCCC2)cc1,,"inconclusive: 11.6 µM [cytotoxic, partial curve]"
CCc1nnc(NC(=O)CSc2nc(-c3ccccc3)c(-c3ccccc3)o2)s1,,"inconclusive: 2.91 µM [cytotoxic, full curve, poor fit]"
CCc1cc2c3c(c1)C1(C(=O)N3C(C)(C)C=C2C)C(C#N)=C(N)Oc2[nH]c(=O)[nH]c(=O)c21 (configuration not stated),,"inconclusive: 23.1 µM [cytotoxic, single point]"
Cc1ccccc1OCc1nc(-c2ccc(NC(=O)c3ccc4c(c3)OCO4)cc2)no1,,"inconclusive: 11.6 µM [cytotoxic, partial curve, poor fit]"
CCC(CC)COC(=O)C(C#N)c1nc2ccccc2nc1N1CCN(CC)CC1 (configuration not stated),,"inconclusive: 25.9 µM [cytotoxic, partial curve, poor fit]"
Cc1[nH][nH]c(=O)c1N=Nc1ccc(F)cc1,inactive: 0%,
CCN(C(=O)c1cc2cc3ccc(OC)cc3nc2o1)c1cccc(C)c1,,"inconclusive: 23.1 µM [cytotoxic, single point]"
CCCCC(=O)NC(c1ccc(N(CC)CC)cc1)c1ccc2cccnc2c1O (configuration not stated),,"inconclusive: 2.31 µM [cytotoxic, full curve]"
COc1ccc(N2CCN(S(=O)(=O)c3c(C)[nH]c(=O)[nH]c3=O)CC2)cc1,inactive: 5.08%,
CCOC(=O)c1sc(/N=C/c2c(O)ccc3ccccc23)cc1C,inactive: -23%,
O=C(Cc1ccc(F)cc1)N1CCOCC1,,"inconclusive: 20.6 µM [cytotoxic, single point]"
CCN(C[C@H]1N[C@@](Cc2ccccc2)(C(=O)OC)[C@H]2C(=O)N(Cc3ccccc3)C(=O)[C@@H]12)C(=O)Nc1ccc(C(F)(F)F)cc1,,"inconclusive: 29.1 µM [cytotoxic, single point]"
CCN(CC(=O)Nc1ccccc1-c1ccccc1)Cc1nc2ccccc2c(=O)[nH]1,,"inconclusive: 6.51 µM [cytotoxic, full curve]"

# Some of the entries so far, as tab-separated lines.
Structure (SMILES)	activity change, negative = cytotoxicity	Potency
CCC(C)NC(=S)N(Cc1cc2cc(C)ccc2n2nnnc12)CC(C)(C)NC(C)C (configuration not stated)	inactive: 11.8%	
COc1ccc(C=NN=C2c3ccccc3-c3ccccc32)cc1OC		inconclusive: 16.4 µM [cytotoxic, partial curve, poor fit]
Cc1ccc(S(=O)(=O)N(C)c2ccccc2C(=O)NC2CCCC2)cc1		inconclusive: 11.6 µM [cytotoxic, partial curve]
CCc1nnc(NC(=O)CSc2nc(-c3ccccc3)c(-c3ccccc3)o2)s1		inconclusive: 2.91 µM [cytotoxic, full curve, poor fit]

# From PubChem BioAssay AID1347076 (National Center for Advancing Translational Sciences (NCATS), 2019)
